In this assay the target is TREM-2 (endogenous, CD4+ T cells and lung tissue) (human (endogenous in CD4+ T cells and lung tissue)) (UniProt Q9NZC2). Nature of the assay: affinity purification with mass spectrometry.

Chains of the proteins cited; added tags and fusions are not shown. Residues count along the entry.
UniProt Q9NZC2, residues 19-230: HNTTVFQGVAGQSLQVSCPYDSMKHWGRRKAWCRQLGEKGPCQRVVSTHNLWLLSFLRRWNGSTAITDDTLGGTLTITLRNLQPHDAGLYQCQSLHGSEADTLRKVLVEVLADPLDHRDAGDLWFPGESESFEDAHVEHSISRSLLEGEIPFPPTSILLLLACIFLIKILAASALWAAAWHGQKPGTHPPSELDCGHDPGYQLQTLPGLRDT
UniProt P43403: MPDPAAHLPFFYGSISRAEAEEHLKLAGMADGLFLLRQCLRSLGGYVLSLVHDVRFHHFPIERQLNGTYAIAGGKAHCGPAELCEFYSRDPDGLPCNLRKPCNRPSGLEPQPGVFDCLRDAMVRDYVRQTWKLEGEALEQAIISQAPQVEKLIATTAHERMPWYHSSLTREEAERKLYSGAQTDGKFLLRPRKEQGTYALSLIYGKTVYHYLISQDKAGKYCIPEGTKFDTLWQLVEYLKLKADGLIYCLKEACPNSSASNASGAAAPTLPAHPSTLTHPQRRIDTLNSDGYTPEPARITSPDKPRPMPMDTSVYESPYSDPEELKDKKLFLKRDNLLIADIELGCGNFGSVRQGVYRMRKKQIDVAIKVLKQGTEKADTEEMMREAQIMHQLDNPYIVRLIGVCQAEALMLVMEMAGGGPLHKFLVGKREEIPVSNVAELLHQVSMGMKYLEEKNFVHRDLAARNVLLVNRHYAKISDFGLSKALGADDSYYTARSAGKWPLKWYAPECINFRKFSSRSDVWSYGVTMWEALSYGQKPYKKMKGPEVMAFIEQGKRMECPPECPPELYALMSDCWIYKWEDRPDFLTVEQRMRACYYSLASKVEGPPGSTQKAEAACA

Results are given in words; binding and its absence hold for the method and conditions named. In cells and extracts the contact can be indirect. These calls come from enrichment with a bait or labelling near it, and not all partners need be listed.

Our source for the binding values is PMC8654301.

Consider “CD3ζ (endogenous, CD4+ T cells and lung tissue) (from UniProt P20963-1 22-164)”, for which the binding entry is recorded as “binds”. As for “ZAP70 (ζ-chain associated protein of 70 kDa; endogenous, CD4+ T cells and lung tissue) (from UniProt P43403 1-619) (enzyme)”, the binding entry is on record as “binds”.
